Results: patent US20240228507A1, “GREEN SOLVENTS FOR CHEMICAL REACTIONS” (ECOLE POLYTECHNIQUE FÉDÉRALE DE LAUSANNE (EPFL), priority 2021, published 2024)
At least one read-out could not be matched to a standard name with certainty.

Experiment: Hansen solubility parameters of DES DFX:PG (Table 4)

Compound: CC(C)=O [Acetone, acetone]
- Hansen Solubility δD: 15.5 MPa½
- Hansen Solubility δH: 7 MPa½
- Hansen Solubility δP: 10.4 MPa½
